The list does not hold the whole screen: it covers a few groups of compounds. Other doses and runs of a compound may be missing. T/C: endpoint of the treated group in % of that of the vehicle group. Some entries give survivors of the animals treated and no T/C: the source holds a T/C of zero for them, seemingly a mark for toxic or unscored doses. Some doses without a T/C left all or most animals alive at the check, yet need not have been tolerated: survival well below the control is almost never listed, so the zero probably covers shortened survival too. Counts of survivors are from the toxicity check (mostly the fifth day) where no day follows; animals may have died later. Schedules are NCI's codes, taken here to give the interval after Q, in days (D) or hours (H), and the number of doses after X. Where survival is the endpoint, this PubChem deposit counts one and a half times the control or more as active, and values a quarter to a half above the control carry no call in these data; other NCI protocols may use other cut-offs. Some entries show no survivor count and are marked so; the dose need not have been tolerated. Some doses were run more than once; the values are given in rising order.

Data on 9 molecules can be found in PubChem BioAssay AID192 (DTP/NCI, 2004).

This assay deals with BDF1 mice, B16 melanoma ip, median survival T/C. Nature of the assay: NCI In Vivo Anticancer Drug Screen. Data for tumor model B16 Melanoma (intraperitoneal) in B6D2F1 (BDF1) mice. The settings on record: T/C endpoint: median survival time, schedule: Q01DX009 (ip), higher T/C = longer survival. The procedure, abridged: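 Tumor-bearing mice received test compound or vehicle. Survival or tumor size was then measured in both groups. The treated-group figure was divided by the control-group figure.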

[1] abbreviates: dose: 1.56 mg/kg/injection, vehicle: Klucel (hydroxypropylcellulose) (HPC).
The mark [2] stands for this setting: dose: 3.12 mg/kg/injection, vehicle: Klucel (hydroxypropylcellulose) (HPC).
Where [3] appears, read: dose: 6.25 mg/kg/injection, vehicle: Klucel (hydroxypropylcellulose) (HPC).
The mark [4] stands for this setting: dose: 12.5 mg/kg/injection, vehicle: Klucel (hydroxypropylcellulose) (HPC).
The mark [5] stands for this setting: dose: 25.0 mg/kg/injection, vehicle: Klucel (hydroxypropylcellulose) (HPC).
Where [6] appears, read: dose: 3.13 mg/kg/injection, vehicle: Klucel (hydroxypropylcellulose) (HPC).
Where [7] appears, read: dose: 50.0 mg/kg/injection, vehicle: Klucel (hydroxypropylcellulose) (HPC).
The mark [8] stands for this setting: dose: 2.5 mg/kg/injection, vehicle: saline.
The mark [9] stands for this setting: dose: 5.0 mg/kg/injection, vehicle: saline.
[10] abbreviates: dose: 10.0 mg/kg/injection, vehicle: saline.
[11] abbreviates: dose: 20.0 mg/kg/injection, vehicle: saline.

As for `Cc1ccc(C(=O)O)cc1N(CCCl)CCCl`, the T/C runs as follows: under setting [1], 95 [survivor count not shown] and 108 % of control [survivor count not shown]; under setting [2], 97 [survivor count not shown] and 127 % of control [survivor count not shown]; under setting [3], 104 [survivor count not shown] and 160 % of control [survivor count not shown]; under setting [4], 120 [survivor count not shown] and 158 % of control [survivor count not shown]; under setting [5], 175 % of control [survivor count not shown].
Turning to `CC1=CC(=O)C(N(CCCl)CCCl)=CC1=O`, the T/C is, setting by setting: (dose: 0.19 mg/kg/injection, vehicle: Klucel (hydroxypropylcellulose) (HPC)) 116 % of control; (dose: 0.39 mg/kg/injection, vehicle: Klucel (hydroxypropylcellulose) (HPC), evaluated on day 60) 120 % of control; (dose: 0.39 mg/kg/injection, vehicle: Klucel (hydroxypropylcellulose) (HPC), evaluation day not shown) 113 % of control [survivor count not shown]; (dose: 0.78 mg/kg/injection, vehicle: Klucel (hydroxypropylcellulose) (HPC), evaluated on day 60) 135 % of control; (dose: 0.78 mg/kg/injection, vehicle: Klucel (hydroxypropylcellulose) (HPC), evaluation day not shown) 139 % of control [survivor count not shown]; (dose: 1.56 mg/kg/injection, vehicle: Klucel (hydroxypropylcellulose) (HPC), evaluated on day 60) 153 % of control. In addition, the T/C (dose: 1.56 mg/kg/injection, vehicle: Klucel (hydroxypropylcellulose) (HPC), evaluation day not shown) is 143 [survivor count not shown], 179 [survivor count not shown], 208 % of control [survivor count not shown]; the T/C under setting [2] was 162 % of control; the T/C under setting [6] was 95 [survivor count not shown] and 187 % of control [survivor count not shown].
On to `Nc1cc(N)cc(N(CCCl)CCCl)c1`, for which the T/C is, setting by setting: (dose: 0.78 mg/kg/injection, vehicle: Klucel (hydroxypropylcellulose) (HPC)) 97 % of control [survivor count not shown]; under setting [1], 98 % of control [survivor count not shown]; under setting [6], 102 % of control [survivor count not shown]; under setting [3], 131 % of control [survivor count not shown].
`CCOc1ccc(N(CCCl)CCCl)cc1`: the T/C under setting [2] is 122 % of control; the T/C under setting [3] is 134 % of control; the T/C under setting [4] was 146 % of control; the T/C under setting [5] was 172 % of control; the T/C under setting [7] was 197 % of control. For the same molecule, the survivor count (dose: 100.0 mg/kg/injection, vehicle: Klucel (hydroxypropylcellulose) (HPC)) is reported as 10 of 10.
For `Cc1ccc(N(CCCl)CCCl)cc1`, the T/C was 101 % of control [survivor count not shown] under setting [2]; 116 % of control [survivor count not shown] under setting [3]; 110 % of control [survivor count not shown] under setting [4]; 121 % of control [survivor count not shown] under setting [5]; 137 % of control [survivor count not shown] under setting [7].
Regarding `CC(C(=O)O)N(CCCl)CCCl` (configuration not stated), the T/C is, setting by setting: (dose: 0.12 mg/kg/injection, vehicle: saline) 92 % of control [survivor count not shown]; (dose: 0.25 mg/kg/injection, vehicle: saline) 97 [survivor count not shown] and 133 % of control [survivor count not shown]; (dose: 0.5 mg/kg/injection, vehicle: saline) 119 [survivor count not shown] and 135 % of control [survivor count not shown]; (dose: 1.0 mg/kg/injection, vehicle: saline) 119 [survivor count not shown] and 147 % of control [survivor count not shown]; (dose: 1.25 mg/kg/injection, vehicle: saline) 155 % of control [survivor count not shown]; (dose: 2.0 mg/kg/injection, vehicle: saline) 161 % of control [survivor count not shown]. Also, the T/C by setting is: under setting [8], 180 [survivor count not shown] and 185 % of control [survivor count not shown]; under setting [9], 150 % of control [survivor count not shown]; under setting [10], 168 % of control [survivor count not shown]; under setting [11], 213 % of control [survivor count not shown].
Take `Cc1cccc(CN(CCCl)CCCl)c1`: the T/C under setting [8] was 90 % of control [survivor count not shown], the T/C under setting [9] is 91 % of control [survivor count not shown], the T/C under setting [10] was 90 % of control [survivor count not shown] and the T/C under setting [11] is 91 % of control [survivor count not shown].
As for `C[N+](CCCl)(CCCl)Cc1ccc([N+](=O)[O-])cc1`, the T/C is 109 % of control [survivor count not shown] (dose: 0.78 mg/kg/injection, vehicle: saline); 115 % of control [survivor count not shown] (dose: 1.56 mg/kg/injection, vehicle: saline); 109 [survivor count not shown] and 111 % of control [survivor count not shown] (dose: 3.12 mg/kg/injection, vehicle: saline); 115 [survivor count not shown], 126 [survivor count not shown], 143 % of control [survivor count not shown] (dose: 6.25 mg/kg/injection, vehicle: saline); 118 % of control [survivor count not shown] (dose: 12.5 mg/kg/injection, vehicle: saline).
Turning to `COC(=O)CCc1ccc(CN(CCCl)CCCl)cc1`, the T/C is 94 % of control [survivor count not shown] (dose: 0.37 mg/kg/injection, vehicle: saline); 108 % of control [survivor count not shown] (dose: 0.75 mg/kg/injection, vehicle: saline); 108 % of control [survivor count not shown] (dose: 1.5 mg/kg/injection, vehicle: saline); 118 % of control [survivor count not shown] (dose: 3.0 mg/kg/injection, vehicle: saline).
